Values of other authors, collected in article PMC12434071, “Platinum-group metal half-sandwich complexes of 1-(α-D-glucopyranosyl)-4-hetaryl-1,2,3-triazoles: synthesis, solution equilibrium studies, and investigation of their anticancer and antimicrobial activities” (Frontiers in Chemistry, 2025).

Tested on: A2780 cells
Design: method as in Kacsir et al., 2023a
Conditions: cisplatin-sensitive A2780 cells; ref Kacsir et al., 2023a; cited from earlier work

Question: Which IC50 does the source give for `N.N.[Cl][Pt][Cl]` [cisplatin] here?
Answer: Its IC50 is 1210 nM.
